Test results published in patent publication US11008290B2, “Halogenated quinoline derivatives as antimicrobial agents” (University of Florida Research Foundation, Incorporated, priority 2015, dated 2021).
Some of these results come from one statement about several compounds together. Some ranges recur; such a range may be that of the whole group of compounds.

Test system: MRSA-2 planktonic cells and biofilms
Assay: Calgary Biofilm Device (CBD) MBC/MBEC determination
Type: cell-based, Staphylococcus aureus
Settings: Table 2, planktonic killing, first value of MBC/MBEC cell, listed as vancomycin
Protocol: Biofilm eradication experiments were performed using the Calgary Biofilm Device to determine MBC/MBEC values for various compounds of interest (Innovotech, product code: 19111). The Calgary device (96-well plate with lid containing 96 total pegs to establish biofilms; 1 peg/well) was inoculated with 125 μL of a mid-log phase culture diluted 1,000-fold in tryptic soy broth with 0.5% glucose (TSBG) to establish bacterial biofilms after incubation at 37° C. for 24 hours. The lid of the Calgary device was then removed, washed and transferred to another 96-well plate containing 2-fold serial dilutions of the test compounds (the “challenge plate”). The total volume of media with compound in each well in the challenge plate was 150 μL. The Calgary device was then incubated at 37° C. for 24 hours. The lid was then removed from the challenge plate and MBC/MBEC values were determined using different final assays. […] The MBC values were determined as the concentration giving a lack of visible bacterial growth (e.g., turbidity). For determination of MBEC values, the Calgary device lid (with attached pegs/treated biofilms) was transferred to a new 96-well plate containing 150 μL of fresh TSBG media in each well and incubated for 24 hours at 37° C. to allow viable biofilms to grow and disperse resulting in turbidity after the incubation period. […]

SMILES: CN[C@H](CC(C)C)C(=O)N[C@H]1C(=O)N[C@@H](CC(N)=O)C(=O)N[C@H]2C(=O)N[C@H]3C(=O)N[C@H](C(=O)N[C@H](C(=O)O)c4cc(O)cc(O)c4-c4cc3ccc4O)[C@H](O)c3ccc(c(Cl)c3)Oc3cc2cc(c3O[C@@H]2O[C@H](CO)[C@@H](O)[C@H](O)[C@H]2O[C@H]2C[C@](C)(N)[C@H](O)[C@H](C)O2)Oc2ccc(cc2Cl)[C@H]1O [Vancomycin, reference compound]
- MRSA-2 Clinical Isolate MBC: 3.0 to 62.5 µM
